Results taken from PubChem BioAssay AID188 (DTP/NCI, 2004).
The mice bore no tumour; each value counts animals alive of those treated. Counts of survivors are from the toxicity check (mostly the fifth day) where no day follows; animals may have died later. Schedules are NCI's codes, read here as Q, the interval in days (D) or hours (H), X, the number of doses. Some structures stand for samples that the source files as different forms (salt, stereo form or complex); doses refer to the form tested. Some entries hold several experiments; their values stand side by side, smallest first.

Tested on: CD2F1 mice, nontumored, toxicity/survival
Test: NCI In Vivo Anticancer Drug Screen. Data for tumor model Nontumored Animals (Toxicity Test) in CD2F1 (CDF1) mice

## Cc1cc(NCCCCCCNc2cc(C)nc3ccc(N)cc23)c2cc(N)ccc2n1
dose: 1.1 mg/kg/injection, schedule: Q01DX005 (iv), vehicle: water
  survivor count: 8 of 8
dose: 1.2 mg/kg/injection, schedule: Q01DX009 (ip), vehicle: saline with Tween-80
  survivor count: 8 of 8
dose: 1.4 mg/kg/injection, schedule: Q01DX005 (iv), vehicle: water
  survivor count: 8 of 8
dose: 1.56 mg/kg/injection, schedule: Q01DX009 (ip), vehicle: water
  survivor count: 8 of 8
dose: 1.9 mg/kg/injection, schedule: Q01DX005 (iv), vehicle: water
  survivor count: 8 of 8
dose: 1.94 mg/kg/injection, schedule: Q01DX005 (iv), vehicle: saline with Tween-80
  survivor count: 10 of 10
dose: 1.94 mg/kg/injection, schedule: Q01DX009 (ip), vehicle: saline with Tween-80
  survivor count: 10 of 10
dose: 1.94 mg/kg/injection, schedule: Q01DX009 (sc), vehicle: saline with Tween-80
  survivor count: 10 of 10
dose: 2.4 mg/kg/injection, schedule: Q01DX009 (ip), vehicle: saline with Tween-80
  survivor count: 8 of 8
dose: 2.5 mg/kg/injection, schedule: Q01DX005 (iv), vehicle: water
  survivor count: 8 of 8
dose: 2.53 mg/kg/injection, schedule: Q01DX005 (iv), vehicle: water
  survivor count: 10 of 10
dose: 2.53 mg/kg/injection, schedule: Q01DX009 (ip), vehicle: water
  survivor count: 10 of 10
dose: 2.53 mg/kg/injection, schedule: Q01DX009 (sc), vehicle: water
  survivor count: 10 of 10
dose: 2.58 mg/kg/injection, schedule: Q01DX005 (iv), vehicle: saline with Tween-80
  survivor count: 10 of 10
dose: 2.58 mg/kg/injection, schedule: Q01DX009 (ip), vehicle: saline with Tween-80
  survivor count: 10 of 10 and 8 of 8
dose: 2.58 mg/kg/injection, schedule: Q01DX009 (sc), vehicle: saline with Tween-80
  survivor count: 10 of 10
dose: 3.13 mg/kg/injection, schedule: Q01DX009 (ip), vehicle: water
  survivor count: 8 of 8
dose: 3.38 mg/kg/injection, schedule: Q01DX005 (iv), vehicle: water
  survivor count: 8 of 10
dose: 3.38 mg/kg/injection, schedule: Q01DX009 (ip), vehicle: water
  survivor count: 10 of 10
dose: 3.38 mg/kg/injection, schedule: Q01DX009 (sc), vehicle: water
  survivor count: 10 of 10
dose: 3.4 mg/kg/injection, schedule: Q01DX005 (iv), vehicle: water
  survivor count: 8 of 8
dose: 3.44 mg/kg/injection, schedule: Q01DX005 (iv), vehicle: saline with Tween-80
  survivor count: 10 of 10
dose: 3.44 mg/kg/injection, schedule: Q01DX009 (ip), vehicle: saline with Tween-80
  survivor count: 10 of 10
dose: 3.44 mg/kg/injection, schedule: Q01DX009 (sc), vehicle: saline with Tween-80
  survivor count: 10 of 10
dose: 4.5 mg/kg/injection, schedule: Q01DX005 (iv), vehicle: water
  survivor count: 5 of 8
dose: 4.51 mg/kg/injection, schedule: Q01DX005 (iv), vehicle: water
  survivor count: 2 of 10
dose: 4.51 mg/kg/injection, schedule: Q01DX009 (ip), vehicle: water
  survivor count: 10 of 10
dose: 4.51 mg/kg/injection, schedule: Q01DX009 (sc), vehicle: water
  survivor count: 10 of 10
dose: 4.59 mg/kg/injection, schedule: Q01DX005 (iv), vehicle: saline with Tween-80
  survivor count: 10 of 10
dose: 4.59 mg/kg/injection, schedule: Q01DX009 (ip), vehicle: saline with Tween-80
  survivor count: 10 of 10
dose: 4.59 mg/kg/injection, schedule: Q01DX009 (sc), vehicle: saline with Tween-80
  survivor count: 10 of 10
dose: 4.7 mg/kg/injection, schedule: Q01DX009 (ip), vehicle: saline with Tween-80
  survivor count: 8 of 8
dose: 6.0 mg/kg/injection, schedule: Q01DX005 (iv), vehicle: water
  survivor count: 1 of 8
dose: 6.01 mg/kg/injection, schedule: Q01DX005 (iv), vehicle: water
  survivor count: 0 of 10
dose: 6.01 mg/kg/injection, schedule: Q01DX009 (ip), vehicle: water
  survivor count: 10 of 10
dose: 6.01 mg/kg/injection, schedule: Q01DX009 (sc), vehicle: water
  survivor count: 10 of 10
dose: 6.12 mg/kg/injection, schedule: Q01DX005 (iv), vehicle: saline with Tween-80
  survivor count: 10 of 10
dose: 6.12 mg/kg/injection, schedule: Q01DX009 (ip), vehicle: saline with Tween-80
  survivor count: 10 of 10
dose: 6.12 mg/kg/injection, schedule: Q01DX009 (sc), vehicle: saline with Tween-80
  survivor count: 10 of 10 and 8 of 8
dose: 6.25 mg/kg/injection, schedule: Q01DX009 (ip), vehicle: water
  survivor count: 8 of 8
dose: 8.0 mg/kg/injection, schedule: Q01DX005 (iv), vehicle: water
  survivor count: 1 of 8
dose: 8.01 mg/kg/injection, schedule: Q01DX005 (iv), vehicle: water
  survivor count: 0 of 10
dose: 8.01 mg/kg/injection, schedule: Q01DX009 (ip), vehicle: water
  survivor count: 10 of 10
dose: 8.01 mg/kg/injection, schedule: Q01DX009 (sc), vehicle: water
  survivor count: 10 of 10
dose: 8.2 mg/kg/injection, schedule: Q01DX005 (iv), vehicle: saline with Tween-80
  survivor count: 10 of 10
dose: 8.2 mg/kg/injection, schedule: Q01DX009 (ip), vehicle: saline with Tween-80
  survivor count: 10 of 10
dose: 8.2 mg/kg/injection, schedule: Q01DX009 (sc), vehicle: saline with Tween-80
  survivor count: 10 of 10
dose: 9.4 mg/kg/injection, schedule: Q01DX009 (ip), vehicle: saline with Tween-80
  survivor count: 8 of 8
dose: 10.7 mg/kg/injection, schedule: Q01DX005 (iv), vehicle: water
  survivor count: 0 of 10 and 1 of 8
dose: 10.7 mg/kg/injection, schedule: Q01DX009 (ip), vehicle: water
  survivor count: 10 of 10
dose: 10.7 mg/kg/injection, schedule: Q01DX009 (sc), vehicle: water
  survivor count: 10 of 10
dose: 10.9 mg/kg/injection, schedule: Q01DX005 (iv), vehicle: saline with Tween-80
  survivor count: 10 of 10 and 8 of 8
dose: 10.9 mg/kg/injection, schedule: Q01DX009 (ip), vehicle: saline with Tween-80
  survivor count: 10 of 10
dose: 10.9 mg/kg/injection, schedule: Q01DX009 (sc), vehicle: saline with Tween-80
  survivor count: 10 of 10 and 8 of 8
dose: 12.5 mg/kg/injection, schedule: Q01DX009 (ip), vehicle: water
  survivor count: 8 of 8
dose: 14.2 mg/kg/injection, schedule: Q01DX005 (iv), vehicle: water
  survivor count: 0 of 10
dose: 14.2 mg/kg/injection, schedule: Q01DX009 (ip), vehicle: water
  survivor count: 10 of 10
dose: 14.2 mg/kg/injection, schedule: Q01DX009 (sc), vehicle: water
  survivor count: 10 of 10
dose: 14.5 mg/kg/injection, schedule: Q01DX005 (iv), vehicle: saline with Tween-80
  survivor count: 10 of 10 and 8 of 8
dose: 14.5 mg/kg/injection, schedule: Q01DX009 (ip), vehicle: saline with Tween-80
  survivor count: 10 of 10 and 8 of 8
dose: 14.5 mg/kg/injection, schedule: Q01DX009 (sc), vehicle: saline with Tween-80
  survivor count: 10 of 10 and 8 of 8
dose: 18.8 mg/kg/injection, schedule: Q01DX009 (ip), vehicle: saline with Tween-80
  survivor count: 8 of 8
dose: 19.0 mg/kg/injection, schedule: Q01DX005 (iv), vehicle: water
  survivor count: 0 of 10
dose: 19.0 mg/kg/injection, schedule: Q01DX009 (ip), vehicle: water
  survivor count: 10 of 10
dose: 19.0 mg/kg/injection, schedule: Q01DX009 (sc), vehicle: water
  survivor count: 10 of 10
dose: 19.4 mg/kg/injection, schedule: Q01DX005 (iv), vehicle: saline with Tween-80
  survivor count: 10 of 10 and 8 of 8
dose: 19.4 mg/kg/injection, schedule: Q01DX009 (ip), vehicle: saline with Tween-80
  survivor count: 10 of 10 and 8 of 8
dose: 19.4 mg/kg/injection, schedule: Q01DX009 (sc), vehicle: saline with Tween-80
  survivor count: 8 of 8
dose: 25.0 mg/kg/injection, schedule: Q01DX009 (ip), vehicle: water
  survivor count: 3 of 8
dose: 25.3 mg/kg/injection, schedule: Q01DX005 (iv), vehicle: water
  survivor count: 0 of 10
dose: 25.3 mg/kg/injection, schedule: Q01DX009 (ip), vehicle: water
  survivor count: 9 of 10
dose: 25.3 mg/kg/injection, schedule: Q01DX009 (sc), vehicle: water
  survivor count: 8 of 8
dose: 25.8 mg/kg/injection, schedule: Q01DX005 (iv), vehicle: saline with Tween-80
  survivor count: 10 of 10 and 8 of 8
dose: 25.8 mg/kg/injection, schedule: Q01DX009 (ip), vehicle: saline with Tween-80
  survivor count: 10 of 10 and 8 of 8
dose: 25.8 mg/kg/injection, schedule: Q01DX009 (sc), vehicle: saline with Tween-80
  survivor count: 10 of 10 and 8 of 8
dose: 33.8 mg/kg/injection, schedule: Q01DX005 (iv), vehicle: water
  survivor count: 0 of 10
dose: 33.8 mg/kg/injection, schedule: Q01DX009 (ip), vehicle: water
  survivor count: 4 of 8
dose: 33.8 mg/kg/injection, schedule: Q01DX009 (sc), vehicle: water
  survivor count: 10 of 10
dose: 34.4 mg/kg/injection, schedule: Q01DX005 (iv), vehicle: saline with Tween-80
  survivor count: 8 of 9, 10 of 10, 8 of 8
dose: 34.4 mg/kg/injection, schedule: Q01DX009 (ip), vehicle: saline with Tween-80
  survivor count: 8 of 8
dose: 34.4 mg/kg/injection, schedule: Q01DX009 (sc), vehicle: saline with Tween-80
  survivor count: 10 of 10 and 8 of 8
dose: 37.5 mg/kg/injection, schedule: Q01DX009 (ip), vehicle: saline with Tween-80
  survivor count: 8 of 8
dose: 45.0 mg/kg/injection, schedule: Q01DX005 (iv), vehicle: water
  survivor count: 0 of 10
dose: 45.0 mg/kg/injection, schedule: Q01DX009 (ip), vehicle: water
  survivor count: 0 of 8
dose: 45.0 mg/kg/injection, schedule: Q01DX009 (sc), vehicle: water
  survivor count: 10 of 10
dose: 45.9 mg/kg/injection, schedule: Q01DX005 (iv), vehicle: saline with Tween-80
  survivor count: 6 of 10, 7 of 8, 9 of 10
dose: 45.9 mg/kg/injection, schedule: Q01DX009 (ip), vehicle: saline with Tween-80
  survivor count: 7 of 8 and 8 of 8
dose: 45.9 mg/kg/injection, schedule: Q01DX009 (sc), vehicle: saline with Tween-80
  survivor count: 10 of 10 and 8 of 8
dose: 50.0 mg/kg/injection, schedule: Q01DX009 (ip), vehicle: water
  survivor count: 0 of 8
dose: 60.0 mg/kg/injection, schedule: Q01DX005 (iv), vehicle: water
  survivor count: 0 of 10
dose: 60.0 mg/kg/injection, schedule: Q01DX009 (ip), vehicle: water
  survivor count: 0 of 8
dose: 60.0 mg/kg/injection, schedule: Q01DX009 (sc), vehicle: water
  survivor count: 10 of 10
dose: 75.0 mg/kg/injection, schedule: Q01DX009 (ip), vehicle: saline with Tween-80
  survivor count: 8 of 8
dose: 100.0 mg/kg/injection, schedule: Q01DX009 (ip), vehicle: water
  survivor count: 0 of 8
